Source: US20180312579A1 (Genentech, published 2018)
No constants are given. Whether binding was seen depends on the method and setting. Some entries that bind do so weakly or less than the wild type. For some assays here: Tags and fused reporters may be left off the sequences shown.

Sequences of proteins named here, by UniProt entry; tags and fusion partners are left off. A change or cut given only in a name is not applied to a line headed by its entry.
UniProt Q6UXX9: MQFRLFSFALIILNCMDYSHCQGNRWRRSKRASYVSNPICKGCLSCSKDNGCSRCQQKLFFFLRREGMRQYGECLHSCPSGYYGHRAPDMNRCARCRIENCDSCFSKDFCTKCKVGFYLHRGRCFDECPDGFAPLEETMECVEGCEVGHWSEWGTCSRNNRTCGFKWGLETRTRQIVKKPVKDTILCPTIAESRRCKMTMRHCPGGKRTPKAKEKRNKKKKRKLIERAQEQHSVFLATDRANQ

Experiments:
[1] = target: T1, FLAG-tagged human RSPO2 (Genentech) (human, UniProt Q6UXX9 22-243); assay: competitive binding ELISA: titrated against biotinylated RNF43-Flag (RNF43-ECD) binding to plate-coated hRSPO2; signal = bound RNF43, normalized OD
T1 construct: also called hRSPO2; RSPO2 coated plates; not shown: FLAG tag

[2] = target: T2, FLAG-tagged human RSPO3 (Genentech) (human, UniProt Q9BXY4 22-272); assay: competitive binding ELISA: titrated against biotinylated RNF43-Flag (RNF43-ECD) binding to plate-coated hRSPO3; signal = bound RNF43, normalized OD
T2 construct: also called hRSPO3; RSPO3 coated plates; not shown: FLAG tag
T2 sequence: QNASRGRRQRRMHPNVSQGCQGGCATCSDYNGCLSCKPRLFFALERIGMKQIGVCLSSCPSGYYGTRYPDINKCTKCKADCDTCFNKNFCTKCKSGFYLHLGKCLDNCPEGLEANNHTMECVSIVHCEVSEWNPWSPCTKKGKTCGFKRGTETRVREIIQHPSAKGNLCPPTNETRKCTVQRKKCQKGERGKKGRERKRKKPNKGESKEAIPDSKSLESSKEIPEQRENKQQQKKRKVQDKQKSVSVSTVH

binding [1]: binds
binding [2]: binds
B1: RNF43 (receptor)
chain: GFGRTGLVLAAAVESERSAEQKAIIRVIPLKMDPTGKLNLTLEGVFAGVAEITPAEGKLMQSHPLYLCNASDDDNLEPGFISIVKLESPRRAPRPCLSLASKARMAGERGASAVLFDITEDRAAAEQLQQPLGLTWPVVLIWGNDAEKLMEFVYKNQKAHVRIELKEPPAWPDY
notes: kept apart from the biotinylated tracer m34; not shown: FLAG tag and any linker to it
